Test results as given in the supplement of paper PMC12282887.
These are raw signals, not scaled to a control.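 The top concentration was set near the MIC for antimicrobials, at 500 µM for most other compounds, and up to 1 mM for known inducer-like compounds. Deletion strains started from a tenfold smaller inoculum, and wells growing below 10% of the overall median were treated as non-growing.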

Tested on: Escherichia coli BW25113
Experiment: growth (OD600 area under curve, 8 h) (OD600 x h); higher = more growth
Procedure: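 E. coli BW25113 reporter strains (wild type, ΔmarA, ΔsoxS, Δrob, each carrying one of 8 lux reporter plasmids) were grown in 40 µl LB in 384-well plates at 37°C, 800 rpm, with each compound at 4 two-fold concentrations, in biological duplicates. Growth is the baseline-corrected OD600 area under the curve over 8 h (0-8 h WT, 1-9 h deletion strains).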

Cc1c(N)nc([C@H](CC(N)=O)NC[C@H](N)C(N)=O)nc1C(=O)N[C@H](C(=O)N[C@H](C)[C@@H](O)[C@H](C)C(=O)N[C@H](C(=O)NCCc1nc(-c2nc(C(=O)NCCC[S+](C)C)cs2)cs1)[C@@H](C)O)[C@@H](OC1OC(CO)C(O)C(O)C1OC1OC(CO)C(O)C(OC(N)=O)C1O)c1cnc[nH]1 (stereo partly drawn) [Bleomycin]
growth
Conditions	reporter plasmid: EVC	reporter plasmid: acrABp	reporter plasmid: marRABp	reporter plasmid: micFp	reporter plasmid: ompFp	reporter plasmid: robp	reporter plasmid: soxSp	reporter plasmid: tolCp
0.038 µg/ml, genetic background: wild type	2.56	3.05	3.25	2.91	3	3.21	2.97	2.95
0.038 µg/ml, genetic background: ΔmarA	3.09	3.92	3.49	3.04	3.24	3.74	2.74	2.64
0.038 µg/ml, genetic background: Δrob	2.67	2.78	3.11	2.9	2.41	2.56	2.69	2.85
0.038 µg/ml, genetic background: ΔsoxS	2.8	2.84	2.88	2.34	2.66	2.98	3.06	2.94
0.076 µg/ml, genetic background: wild type	2.64	2.77	2.95	2.8818	2.79	3.094	2.897	2.68
0.076 µg/ml, genetic background: ΔmarA	2.63	3.38	3	2.86	2.9	3.43	2.44	2.47
0.076 µg/ml, genetic background: Δrob	2.77	2.49	2.68	2.76	2.07	2.25	2.75	2.82
0.076 µg/ml, genetic background: ΔsoxS	2.93	2.51	2.65	2.58	2.44	2.69	2.92	2.99
0.15 µg/ml, genetic background: wild type	1.9	2.2	2.45	2.32	2.38	2.67	2.54	2.37
0.15 µg/ml, genetic background: ΔmarA	2.369	2.45	2.19	1.98	1.82	2.6	2.48	1.963
0.15 µg/ml, genetic background: Δrob	2.16	2.09	2.19	2.16	1.51	1.71	2.33	2.2
0.15 µg/ml, genetic background: ΔsoxS	2.36	2.01	2.2	1.87	1.93	2.25	2.4	2.14
0.3 µg/ml, genetic background: wild type	0.971	0.308	0.591	1.17	0.366	0.345	1.65	1.36
0.3 µg/ml, genetic background: ΔmarA	0.666	0.0259	-0.00097	0.388	-0.0875	0.418	0.88	0.241
0.3 µg/ml, genetic background: Δrob	0.835	0.0915	0.0356	0.603	-0.0484	0.00567	1.32	1.02
0.3 µg/ml, genetic background: ΔsoxS	1.02	0.0103	0.0564	0.221	-0.0198	-0.0105	0.442	0.937
